These results are taken from publication doi:10.1101/2024.03.12.584565.

Holding throughout (test): co-IP
Experiment [1] deals with T1, endogenous Rad21 (human (endogenous in HeLaK)) (UniProt O60216).
T1 sequence: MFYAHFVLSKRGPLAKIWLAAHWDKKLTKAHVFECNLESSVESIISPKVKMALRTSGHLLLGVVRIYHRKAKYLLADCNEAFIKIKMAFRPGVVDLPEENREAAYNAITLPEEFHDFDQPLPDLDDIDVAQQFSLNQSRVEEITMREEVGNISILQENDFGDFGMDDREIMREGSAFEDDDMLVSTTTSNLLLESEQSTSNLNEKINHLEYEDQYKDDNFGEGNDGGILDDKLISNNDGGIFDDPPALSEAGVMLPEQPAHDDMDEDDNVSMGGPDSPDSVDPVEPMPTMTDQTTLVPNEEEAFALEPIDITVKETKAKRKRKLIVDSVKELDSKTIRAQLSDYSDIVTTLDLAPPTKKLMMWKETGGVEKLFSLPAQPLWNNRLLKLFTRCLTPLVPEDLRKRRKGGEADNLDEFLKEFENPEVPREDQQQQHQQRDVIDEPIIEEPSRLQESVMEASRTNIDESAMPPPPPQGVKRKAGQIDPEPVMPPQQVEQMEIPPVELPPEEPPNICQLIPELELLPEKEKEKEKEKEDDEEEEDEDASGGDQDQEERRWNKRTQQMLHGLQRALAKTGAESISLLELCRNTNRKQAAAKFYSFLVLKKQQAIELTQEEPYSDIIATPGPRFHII

The target of experiment [2] is T2, Wild type Pds5b-Flag in HeLaK cells (human) (UniProt Q9NTI5).
T2 sequence: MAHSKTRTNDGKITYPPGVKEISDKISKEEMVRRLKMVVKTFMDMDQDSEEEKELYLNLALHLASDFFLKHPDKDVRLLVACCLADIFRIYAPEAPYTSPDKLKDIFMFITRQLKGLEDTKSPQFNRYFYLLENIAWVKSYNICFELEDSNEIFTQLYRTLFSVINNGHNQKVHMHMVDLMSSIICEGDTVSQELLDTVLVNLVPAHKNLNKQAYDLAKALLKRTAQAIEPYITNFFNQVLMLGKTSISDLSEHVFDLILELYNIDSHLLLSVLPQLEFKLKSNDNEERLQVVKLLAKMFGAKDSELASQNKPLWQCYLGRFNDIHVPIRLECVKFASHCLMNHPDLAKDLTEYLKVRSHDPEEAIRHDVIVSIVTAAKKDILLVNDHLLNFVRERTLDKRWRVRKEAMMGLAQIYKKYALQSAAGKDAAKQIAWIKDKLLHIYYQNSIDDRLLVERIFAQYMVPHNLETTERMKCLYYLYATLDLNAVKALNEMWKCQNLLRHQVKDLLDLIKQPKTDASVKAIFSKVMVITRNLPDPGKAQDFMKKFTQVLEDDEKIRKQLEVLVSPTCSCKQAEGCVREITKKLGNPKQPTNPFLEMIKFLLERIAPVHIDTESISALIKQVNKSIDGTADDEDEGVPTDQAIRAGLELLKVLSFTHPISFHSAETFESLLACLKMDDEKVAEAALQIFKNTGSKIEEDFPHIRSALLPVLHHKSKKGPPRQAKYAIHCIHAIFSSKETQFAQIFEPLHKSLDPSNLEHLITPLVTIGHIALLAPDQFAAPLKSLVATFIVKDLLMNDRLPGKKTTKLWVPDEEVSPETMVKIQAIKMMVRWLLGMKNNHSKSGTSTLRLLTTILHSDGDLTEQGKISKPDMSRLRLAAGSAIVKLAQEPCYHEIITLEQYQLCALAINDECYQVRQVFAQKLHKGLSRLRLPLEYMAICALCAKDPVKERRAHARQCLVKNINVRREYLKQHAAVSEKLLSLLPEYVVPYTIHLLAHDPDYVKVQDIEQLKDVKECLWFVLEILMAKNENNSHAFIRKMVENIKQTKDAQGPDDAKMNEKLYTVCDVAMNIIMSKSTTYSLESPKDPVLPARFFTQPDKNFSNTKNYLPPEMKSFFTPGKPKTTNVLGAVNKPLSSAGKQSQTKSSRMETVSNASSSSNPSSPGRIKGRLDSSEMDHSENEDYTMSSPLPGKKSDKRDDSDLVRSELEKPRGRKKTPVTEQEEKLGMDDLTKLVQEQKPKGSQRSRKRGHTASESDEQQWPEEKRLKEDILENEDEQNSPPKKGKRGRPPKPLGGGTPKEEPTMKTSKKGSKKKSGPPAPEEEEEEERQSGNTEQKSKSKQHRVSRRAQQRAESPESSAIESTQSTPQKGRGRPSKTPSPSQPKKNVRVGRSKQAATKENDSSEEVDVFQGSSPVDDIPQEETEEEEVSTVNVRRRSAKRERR

The target of experiment [3] is T3, Pds5b-6D-Flag in HeLaK cells (human) (UniProt Q9NTI5).
T3 sequence: T2 sequence with S1161D, S1162D, S1166D, S1177D, S1182D, S1209D

Numbering of substitutions follows the chain as printed. These are yes or no findings as the source states them, for the method shown. In cells and extracts the contact can be indirect. Some binding calls cover weakened binding; strength is not graded here. Sequences can lack the tags named with a protein.

B1: endogenous Pds5b (protein, UniProt Q9NTI5 1-1447)
chain: T2 sequence
Regarding B1, the binding entry in experiment [1] is recorded as “binds”.

B2: Wild type Pds5b-Flag in HeLaK cells (protein, UniProt Q9NTI5 1-1447)
chain: T2 sequence
As to B2, the binding result in experiment [1] is recorded as “binds”.

B3: endogenous Wapl (protein, UniProt Q7Z5K2 1-1190)
chain: MTSRFGKTYSRKGGNGSSKFDEVFSNKRTTLSTKWGETTFMAKLGQKRPNFKPDIQEIPKKPKVEEESTGDPFGFDSDDESLPVSSKNLAQVKCSSYSESSEAAQLEEVTSVLEANSKISHVVVEDTVVSDKCFPLEDTLLGKEKSTNRIVEDDASISSCNKLITSDKVENFHEEHEKNSHHIHKNADDSTKKPNAETTVASEIKETNDTWNSQFGKRPESPSEISPIKGSVRTGLFEWDNDFEDIRSEDCILSLDSDPLLEMKDDDFKNRLENLNEAIEEDIVQSVLRPTNCRTYCRANKTKSSQGASNFDKLMDGTSQALAKANSESSKDGLNQAKKGGVSCGTSFRGTVGRTRDYTVLHPSCLSVCNVTIQDTMERSMDEFTASTPADLGEAGRLRKKADIATSKTTTRFRPSNTKSKKDVKLEFFGFEDHETGGDEGGSGSSNYKIKYFGFDDLSESEDDEDDDCQVERKTSKKRTKTAPSPSLQPPPESNDNSQDSQSGTNNAENLDFTEDLPGVPESVKKPINKQGDKSKENTRKIFSGPKRSPTKAVYNARHWNHPDSEELPGPPVVKPQSVTVRLSSKEPNQKDDGVFKAPAPPSKVIKTVTIPTQPYQDIVTALKCRREDKELYTVVQHVKHFNDVVEFGENQEFTDDIEYLLSGLKSTQPLNTRCLSVISLATKCAMPSFRMHLRAHGMVAMVFKTLDDSQHHQNLSLCTAALMYILSRDRLNMDLDRASLDLMIRLLELEQDASSAKLLNEKDMNKIKEKIRRLCETVHNKHLDLENITTGHLAMETLLSLTSKRAGDWFKEELRLLGGLDHIVDKVKECVDHLSRDEDEEKLVASLWGAERCLRVLESVTVHNPENQSYLIAYKDSQLIVSSAKALQHCEELIQQYNRAEDSICLADSKPLPHQNVTNHVGKAVEDCMRAIIGVLLNLTNDNEWGSTKTGEQDGLIGTALNCVLQVPKYLPQEQRFDIRVLGLGLLINLVEYSARNRHCLVNMETSCSFDSSICSGEGDDSLRIGGQVHAVQALVQLFLERERAAQLAESKTDELIKDAPTTQHDKSGEWQETSGEIQWVSTEKTDGTEEKHKKEEEDEELDLNKALQHAGKHMEDCIVASYTALLLGCLCQESPINVTTVREYLPEGDFSIMTEMLKKFLSFMNLTCAVGTTGQKSISRVIEYLEHC
In the case of B3, the binding result in experiment [2] and in experiment [3] was “binds” in each case.
